# Data reported in the supplement of paper PMC12819154, “High-throughput peptide-centric local stability assay extends protein–ligand identification to membrane proteins, tissues and bacteria” (Nature Structural & Molecular Biology, 2025).
# Protein sequences, listed by entry. Tags and fused reporters are not part of them. Lines headed by an entry give the natural chain unless they say otherwise; changes in a name come on top.
# UniProt Q9EQ32: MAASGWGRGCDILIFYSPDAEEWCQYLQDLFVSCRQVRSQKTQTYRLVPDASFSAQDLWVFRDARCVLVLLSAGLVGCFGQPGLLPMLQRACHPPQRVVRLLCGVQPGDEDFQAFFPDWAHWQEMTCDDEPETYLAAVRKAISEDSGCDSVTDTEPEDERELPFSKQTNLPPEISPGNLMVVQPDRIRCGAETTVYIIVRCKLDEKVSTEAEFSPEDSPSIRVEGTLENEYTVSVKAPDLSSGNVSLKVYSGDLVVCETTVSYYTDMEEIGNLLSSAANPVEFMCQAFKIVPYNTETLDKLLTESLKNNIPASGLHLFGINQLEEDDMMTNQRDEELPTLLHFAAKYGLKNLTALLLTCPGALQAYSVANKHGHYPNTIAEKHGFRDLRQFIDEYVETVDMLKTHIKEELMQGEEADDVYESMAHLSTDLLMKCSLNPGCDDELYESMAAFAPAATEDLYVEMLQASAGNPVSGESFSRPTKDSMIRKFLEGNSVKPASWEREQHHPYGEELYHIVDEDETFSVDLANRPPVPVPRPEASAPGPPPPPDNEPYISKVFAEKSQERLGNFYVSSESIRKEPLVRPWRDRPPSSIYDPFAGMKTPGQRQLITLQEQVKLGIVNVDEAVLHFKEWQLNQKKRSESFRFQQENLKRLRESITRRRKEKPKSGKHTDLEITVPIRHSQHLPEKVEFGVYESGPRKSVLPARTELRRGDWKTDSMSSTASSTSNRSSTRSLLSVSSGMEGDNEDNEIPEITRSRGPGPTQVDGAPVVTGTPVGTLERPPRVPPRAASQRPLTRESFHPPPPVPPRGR
# UniProt Q9JIX8: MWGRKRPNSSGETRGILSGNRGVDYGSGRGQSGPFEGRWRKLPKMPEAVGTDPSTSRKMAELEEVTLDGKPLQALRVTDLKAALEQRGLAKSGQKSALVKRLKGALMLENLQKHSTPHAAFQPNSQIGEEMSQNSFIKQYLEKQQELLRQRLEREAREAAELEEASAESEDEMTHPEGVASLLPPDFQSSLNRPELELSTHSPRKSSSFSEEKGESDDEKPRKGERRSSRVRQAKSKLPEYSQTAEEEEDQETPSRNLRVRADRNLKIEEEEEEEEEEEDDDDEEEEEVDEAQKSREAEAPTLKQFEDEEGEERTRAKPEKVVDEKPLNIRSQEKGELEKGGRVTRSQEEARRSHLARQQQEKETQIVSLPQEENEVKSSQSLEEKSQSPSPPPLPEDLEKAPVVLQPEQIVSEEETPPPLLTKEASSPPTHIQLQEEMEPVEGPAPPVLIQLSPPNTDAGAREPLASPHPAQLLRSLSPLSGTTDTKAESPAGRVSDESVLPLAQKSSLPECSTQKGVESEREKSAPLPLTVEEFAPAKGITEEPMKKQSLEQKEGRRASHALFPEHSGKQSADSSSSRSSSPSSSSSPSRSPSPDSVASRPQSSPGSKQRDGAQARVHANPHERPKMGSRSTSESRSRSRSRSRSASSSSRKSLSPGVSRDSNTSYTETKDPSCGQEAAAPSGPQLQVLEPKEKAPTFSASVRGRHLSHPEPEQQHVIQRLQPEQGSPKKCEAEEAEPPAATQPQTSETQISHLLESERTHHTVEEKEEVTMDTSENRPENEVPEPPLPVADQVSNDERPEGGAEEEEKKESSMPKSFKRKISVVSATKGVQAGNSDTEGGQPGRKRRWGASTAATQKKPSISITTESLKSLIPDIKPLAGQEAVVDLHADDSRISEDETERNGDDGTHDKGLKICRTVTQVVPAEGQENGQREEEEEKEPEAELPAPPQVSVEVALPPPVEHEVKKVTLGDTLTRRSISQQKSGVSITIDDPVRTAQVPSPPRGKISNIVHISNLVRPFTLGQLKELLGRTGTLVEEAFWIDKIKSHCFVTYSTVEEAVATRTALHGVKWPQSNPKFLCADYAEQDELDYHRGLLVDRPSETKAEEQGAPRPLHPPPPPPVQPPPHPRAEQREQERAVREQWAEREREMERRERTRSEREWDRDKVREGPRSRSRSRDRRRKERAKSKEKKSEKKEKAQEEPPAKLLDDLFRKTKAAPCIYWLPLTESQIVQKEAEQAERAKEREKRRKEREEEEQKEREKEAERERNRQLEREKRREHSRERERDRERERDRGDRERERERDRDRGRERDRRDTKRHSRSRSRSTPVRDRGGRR
# UniProt Q9JHL1: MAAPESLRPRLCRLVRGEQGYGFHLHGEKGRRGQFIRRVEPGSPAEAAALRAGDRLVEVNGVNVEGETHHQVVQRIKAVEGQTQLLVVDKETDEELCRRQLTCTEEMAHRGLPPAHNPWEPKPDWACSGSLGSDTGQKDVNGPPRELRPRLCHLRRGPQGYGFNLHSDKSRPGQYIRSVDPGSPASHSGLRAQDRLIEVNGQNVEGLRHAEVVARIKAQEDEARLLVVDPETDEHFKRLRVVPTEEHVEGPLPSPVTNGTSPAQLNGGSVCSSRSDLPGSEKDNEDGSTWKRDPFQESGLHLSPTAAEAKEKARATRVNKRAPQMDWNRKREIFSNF
# UniProt Q9QWG7: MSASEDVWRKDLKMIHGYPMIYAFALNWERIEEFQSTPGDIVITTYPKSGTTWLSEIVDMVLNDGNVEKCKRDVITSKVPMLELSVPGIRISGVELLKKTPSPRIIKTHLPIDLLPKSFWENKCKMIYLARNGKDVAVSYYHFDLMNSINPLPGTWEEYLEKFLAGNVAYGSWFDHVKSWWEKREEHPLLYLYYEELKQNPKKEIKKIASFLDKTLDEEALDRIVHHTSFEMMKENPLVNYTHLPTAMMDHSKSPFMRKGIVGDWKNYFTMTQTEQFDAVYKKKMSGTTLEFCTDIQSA
# UniProt Q9EPR4: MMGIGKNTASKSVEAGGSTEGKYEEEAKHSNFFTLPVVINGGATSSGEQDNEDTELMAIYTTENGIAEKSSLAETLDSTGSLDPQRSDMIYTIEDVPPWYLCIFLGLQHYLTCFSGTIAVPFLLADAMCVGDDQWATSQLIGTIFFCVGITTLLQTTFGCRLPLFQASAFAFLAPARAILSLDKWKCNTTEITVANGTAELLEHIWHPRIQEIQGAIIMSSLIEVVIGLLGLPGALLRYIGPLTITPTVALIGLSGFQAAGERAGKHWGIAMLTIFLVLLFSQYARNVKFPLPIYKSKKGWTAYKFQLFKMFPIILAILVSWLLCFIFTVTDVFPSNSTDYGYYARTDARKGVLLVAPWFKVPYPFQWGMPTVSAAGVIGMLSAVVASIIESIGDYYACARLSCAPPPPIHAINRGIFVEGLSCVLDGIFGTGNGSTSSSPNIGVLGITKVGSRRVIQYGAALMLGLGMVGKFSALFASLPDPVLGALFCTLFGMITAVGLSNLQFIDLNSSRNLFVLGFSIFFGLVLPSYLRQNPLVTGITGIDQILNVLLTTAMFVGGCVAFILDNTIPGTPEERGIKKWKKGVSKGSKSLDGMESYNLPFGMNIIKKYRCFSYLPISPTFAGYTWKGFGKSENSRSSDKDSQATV
# UniProt Q9JM14: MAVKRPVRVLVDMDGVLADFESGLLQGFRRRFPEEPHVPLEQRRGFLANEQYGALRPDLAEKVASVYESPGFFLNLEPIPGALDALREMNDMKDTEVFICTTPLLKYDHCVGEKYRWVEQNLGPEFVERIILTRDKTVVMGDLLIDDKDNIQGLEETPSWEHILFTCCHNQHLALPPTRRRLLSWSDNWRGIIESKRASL
# UniProt Q9ERS2, whole entry: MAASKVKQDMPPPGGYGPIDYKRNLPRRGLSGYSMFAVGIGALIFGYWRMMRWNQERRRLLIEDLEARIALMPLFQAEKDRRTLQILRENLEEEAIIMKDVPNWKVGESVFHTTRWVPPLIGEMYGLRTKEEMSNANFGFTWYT
# UniProt Q9QUJ7: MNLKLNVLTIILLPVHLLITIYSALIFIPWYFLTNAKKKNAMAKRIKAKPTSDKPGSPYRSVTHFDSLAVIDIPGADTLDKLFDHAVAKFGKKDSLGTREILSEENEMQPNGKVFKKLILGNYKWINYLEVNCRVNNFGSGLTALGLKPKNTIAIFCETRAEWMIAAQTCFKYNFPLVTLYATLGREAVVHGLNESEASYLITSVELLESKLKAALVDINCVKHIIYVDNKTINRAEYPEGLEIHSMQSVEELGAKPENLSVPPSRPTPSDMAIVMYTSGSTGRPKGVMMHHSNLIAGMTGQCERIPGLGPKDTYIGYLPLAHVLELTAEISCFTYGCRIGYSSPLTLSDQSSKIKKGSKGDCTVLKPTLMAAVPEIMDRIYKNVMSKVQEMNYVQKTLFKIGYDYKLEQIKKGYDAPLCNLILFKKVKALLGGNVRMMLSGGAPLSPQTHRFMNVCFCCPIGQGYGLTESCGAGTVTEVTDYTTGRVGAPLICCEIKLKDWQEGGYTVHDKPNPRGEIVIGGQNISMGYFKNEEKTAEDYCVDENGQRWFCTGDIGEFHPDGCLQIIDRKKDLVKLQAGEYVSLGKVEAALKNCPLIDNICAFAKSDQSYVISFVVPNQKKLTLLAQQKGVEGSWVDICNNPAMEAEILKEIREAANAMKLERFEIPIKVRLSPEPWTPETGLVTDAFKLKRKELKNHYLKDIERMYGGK
# UniProt Q9JJZ4: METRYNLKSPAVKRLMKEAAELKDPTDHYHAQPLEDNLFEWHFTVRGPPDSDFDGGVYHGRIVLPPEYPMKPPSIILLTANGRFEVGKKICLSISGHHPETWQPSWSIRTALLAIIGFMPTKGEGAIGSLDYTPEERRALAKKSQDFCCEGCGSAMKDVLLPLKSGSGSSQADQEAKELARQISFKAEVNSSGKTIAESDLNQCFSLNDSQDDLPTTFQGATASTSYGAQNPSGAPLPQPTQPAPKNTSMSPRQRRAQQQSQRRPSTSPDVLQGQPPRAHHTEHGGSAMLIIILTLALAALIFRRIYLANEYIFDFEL
# UniProt Q9QXD6: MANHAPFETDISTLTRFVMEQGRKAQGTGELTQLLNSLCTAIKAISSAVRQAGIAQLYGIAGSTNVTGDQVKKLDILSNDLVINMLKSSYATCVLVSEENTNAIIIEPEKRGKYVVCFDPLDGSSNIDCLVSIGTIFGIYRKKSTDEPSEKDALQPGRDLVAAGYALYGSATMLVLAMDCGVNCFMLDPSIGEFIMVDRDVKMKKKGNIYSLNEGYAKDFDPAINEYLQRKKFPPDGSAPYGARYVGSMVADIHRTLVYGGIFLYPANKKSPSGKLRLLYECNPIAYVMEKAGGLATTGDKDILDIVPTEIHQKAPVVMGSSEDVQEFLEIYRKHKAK
# UniProt Q9DCG2: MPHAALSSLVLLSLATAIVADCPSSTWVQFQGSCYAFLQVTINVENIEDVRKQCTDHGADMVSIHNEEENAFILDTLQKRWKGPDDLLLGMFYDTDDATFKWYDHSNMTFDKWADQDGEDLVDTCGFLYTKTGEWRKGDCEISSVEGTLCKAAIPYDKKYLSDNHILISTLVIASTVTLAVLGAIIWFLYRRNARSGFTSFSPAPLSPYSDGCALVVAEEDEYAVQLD
# UniProt Q9JJG0: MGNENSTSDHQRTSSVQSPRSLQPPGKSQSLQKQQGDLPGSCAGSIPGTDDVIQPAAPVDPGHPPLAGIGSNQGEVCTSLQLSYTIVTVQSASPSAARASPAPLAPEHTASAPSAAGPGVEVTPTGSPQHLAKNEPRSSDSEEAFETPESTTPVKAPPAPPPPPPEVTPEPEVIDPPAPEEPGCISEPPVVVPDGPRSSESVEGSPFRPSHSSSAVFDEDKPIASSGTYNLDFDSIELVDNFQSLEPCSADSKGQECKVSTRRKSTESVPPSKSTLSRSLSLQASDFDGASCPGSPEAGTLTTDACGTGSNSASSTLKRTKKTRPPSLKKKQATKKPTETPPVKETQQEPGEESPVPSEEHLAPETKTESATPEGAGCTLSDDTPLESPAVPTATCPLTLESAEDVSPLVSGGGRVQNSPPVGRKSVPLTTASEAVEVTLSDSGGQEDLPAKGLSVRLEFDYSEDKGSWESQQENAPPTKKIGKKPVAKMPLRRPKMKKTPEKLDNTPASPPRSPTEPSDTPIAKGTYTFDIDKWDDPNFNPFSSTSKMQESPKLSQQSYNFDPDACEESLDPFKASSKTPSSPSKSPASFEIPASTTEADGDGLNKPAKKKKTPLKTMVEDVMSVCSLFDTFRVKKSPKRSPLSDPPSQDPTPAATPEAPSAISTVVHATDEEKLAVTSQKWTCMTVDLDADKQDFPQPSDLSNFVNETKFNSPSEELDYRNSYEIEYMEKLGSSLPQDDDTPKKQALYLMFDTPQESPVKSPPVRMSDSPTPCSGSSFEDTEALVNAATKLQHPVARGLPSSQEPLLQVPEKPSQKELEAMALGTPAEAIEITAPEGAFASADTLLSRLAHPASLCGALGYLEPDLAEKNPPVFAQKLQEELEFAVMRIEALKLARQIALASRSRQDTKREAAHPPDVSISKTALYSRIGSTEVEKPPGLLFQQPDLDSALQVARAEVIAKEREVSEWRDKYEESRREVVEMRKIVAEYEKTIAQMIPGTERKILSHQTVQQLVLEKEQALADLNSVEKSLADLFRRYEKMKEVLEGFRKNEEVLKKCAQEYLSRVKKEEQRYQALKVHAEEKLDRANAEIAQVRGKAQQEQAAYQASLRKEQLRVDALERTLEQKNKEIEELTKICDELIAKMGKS
# Some of the results follow. Most values lie at the level of the controls, where differences are scatter.
# Compound: CN[C@@H]1C[C@H]2O[C@@](C)([C@@H]1OC)n1c3ccccc3c3c4c(c5c6ccccc6n2c5c31)C(=O)NC4 [staurosporine]
# Assay: log2 fold change of pooled soluble protein (PISA), ligand vs vehicle (log2 ratio); higher = more thermally stabilized
# Conditions: ligand concentration: 20 uM; assay format: PISA pool 52.9/55.5/58.6 C
row,Target,log2 fold change of pooled soluble protein
1,UniProt Q9EQ32,-0.501
2,UniProt Q9JIX8,-0.0342
3,UniProt Q9QUI0,-0.0762
4,UniProt Q9JHL1,0.0317
5,UniProt Q9QWK4,-0.0241
6,UniProt Q9ET54,0.0231
7,UniProt Q9DC61,0.116
8,UniProt Q9QYA2,-0.00105
9,UniProt Q9QXA5,-0.00344
10,UniProt Q9JM99,0.188
11,UniProt Q9EST1,-0.346
12,UniProt Q9ET01,0.0804
13,UniProt Q9JKC8,0.381
14,UniProt Q9DCW4,-0.0956
15,UniProt Q9QWG7,-0.101
16,UniProt Q9JKC6,0.0863
17,UniProt Q9EPR4,-0.0526
18,UniProt Q9DCC4,-0.114

# Taken from the results shown for reference:
row,Target,log2 fold change of pooled soluble protein
1,UniProt Q9EQ32,-0.501
2,UniProt Q9JIX8,-0.0342
3,UniProt Q9QUI0,-0.0762
4,UniProt Q9JHL1,0.0317
5,UniProt Q9QWK4,-0.0241
6,UniProt Q9ET54,0.0231
7,UniProt Q9DC61,0.116
8,UniProt Q9QYA2,-0.00105
9,UniProt Q9QXA5,-0.00344
10,UniProt Q9JM99,0.188

# More records follow.

row,Target,log2 fold change of pooled soluble protein
1,UniProt Q9JM14,0.362
2,UniProt Q9DCQ2,-0.12
3,UniProt Q9ERS2,-0.144
4,UniProt Q9ESP1,0.0698
5,UniProt Q9QUJ7,0.147
6,UniProt Q9JJZ4,0.0384
7,UniProt Q9JHH6,0.0371
8,UniProt Q9JIW9,-0.232
9,UniProt Q9JKX6,-0.0567
10,UniProt Q9JHQ5,0.204
11,UniProt Q9DCI9,-0.0643
12,UniProt Q9JHU9,-0.128
13,UniProt Q9QXD6,0.0253
14,UniProt Q9ESW8,0.267
15,UniProt Q9ESD7,0.0117
16,UniProt Q9DCG2,0.275
17,UniProt Q9JL19,-0.0399
18,UniProt Q9JJG0,-0.156
